Reference: PubChem BioAssay AID540276 (National Center for Advancing Translational Sciences (NCATS), 2011)
The campaign covered roughly 300,000 compounds. About 5,400 (1.8%) were called active. This list was built around the results that the source calls inconclusive (neither active nor inactive); the mix of calls is not that of the screen. Calls come from the whole dose curve; tested in HEK293 cells. Potencies of inconclusive entries are doubtful fits and often do not repeat.

Experiment: qHTS for inhibitors of binding or entry into cells for Marburg Virus
Details: Marburg virus pseudotyped entry inhibition, cell reporter; activity change, negative = inhibition: at 37.8 µM (top of the series) unless noted
% is set by controls: 0 for no effect and ±100 for the full control effect; potency is the fitted concentration of half-maximal effect.

SMILES	activity change, negative = inhibition	Potency
CC(C)CCNC(=S)Nc1ccccc1F	inactive: 0.0948%	–
c1ccc(-c2noc(C3CCCCC3)n2)nc1	inactive: -19%	–
O=C(O)c1cc(S(=O)(=O)N2CCCCC2)ccc1Cl	inactive: 5.94%	–
COc1ccc(-c2cc(CNC(C)=O)on2)cc1	inactive: -21.8% [at 46.1 µM]	–
Cc1ccc(OCC(=O)c2cc(C)n(Cc3cccs3)c2C)c([N+](=O)[O-])n1	–	inconclusive: 7.94 µM [inhibitor, partial curve, poor fit]
Cc1nn(C(=O)c2ccco2)c(C)c1Br	inactive: 20.9%	–
CN(C)C(CNC(=O)c1cc(S(=O)(=O)N(C)c2ccccc2)ccc1Cl)c1ccccc1 (stereo not drawn)	–	inconclusive: 12.6 µM [inhibitor, partial curve, poor fit]
COc1ccc(CCN(Cc2cc3cccc(C)c3[nH]c2=O)C(=O)N2CCCC2)cc1OC	–	inconclusive: 0.0065 µM [inhibitor, full curve, poor fit]
CN(CC(=O)Nc1ccc(Cl)c(C(F)(F)F)c1)C(=O)C1CCC1	inactive: -6.38%	–
COc1ccccc1CN1CC(C(=O)N2CCCCO2)CCC1=O (stereo not drawn)	–	inconclusive: 12.6 µM [activator, partial curve]
CCOc1cc(C(=S)N2CCCCC2)ccc1OCC(=O)NCc1ccccc1	–	inconclusive: 5.17 µM [inhibitor, single point]
CCn1c(/C=C2\C(=O)Nc3ccccc32)nc2ccccc2c1=O	–	inconclusive: 3.16 µM [inhibitor, full curve, poor fit]
O=C1CC(N2CCSCC2)C(=O)N1c1cccc(Br)c1 (stereo not drawn)	inactive: -14.9% [at 46.1 µM]	–
CCOc1ccc(-n2c(SC)nc3c(c2=O)SCC3)cc1	–	inconclusive: 0.82 µM [inhibitor, full curve]
CC(=O)OCCc1c2ccccc2c(CCCN(C)C)c2ccccc12	–	inconclusive: 10 µM [inhibitor, partial curve, poor fit]
CCN(CC)CCn1c2c(c(SCC(=O)Nc3nc4ccc(C)cc4s3)nc1=O)CCC2	–	inconclusive: 0.1 µM [inhibitor, full curve, poor fit]
Cc1cccc(C(=O)Nc2ccc(NC(=O)c3ccccc3)cc2)c1	–	inconclusive: 22.4 µM [inhibitor, partial curve, poor fit]
CCC(=NCc1ccc(F)cc1)c1c(O)n(C)c(=O)n(C)c1=O	–	inconclusive: 18.3 µM [inhibitor, partial curve]
CCCCN(C(=O)CSCc1ccc(C)cc1)c1c(N)n(Cc2ccccc2)c(=O)[nH]c1=O	–	inconclusive: 3.16 µM [inhibitor, partial curve, poor fit]
Cn1c(N)c(C(=O)COC(=O)c2cccc(S(=O)(=O)N3CCOCC3)c2)c(=O)n(C)c1=O	–	inconclusive: 2.24 µM [activator, partial curve, poor fit]
COc1ccc(C2=C(C=O)Cc3ccccc3O2)cc1	–	inconclusive: 22.4 µM [inhibitor, single point]
Cc1cc2ccccc2cc1C(=O)c1ccccc1	–	inconclusive: 17.8 µM [inhibitor, partial curve, poor fit]

SMILES	activity change, negative = inhibition	Potency
O=C(c1cnn2cccnc12)N1CCN(Cc2ccc3c(c2)OCO3)CC1	inactive: 1.28%	–
O=[N+]([O-])c1cccc(/C=C2\CCC(/C=N/Nc3ccc4ccccc4n3)=C2N2CCOCC2)c1	–	inconclusive: 2.82 µM [inhibitor, full curve, poor fit]
CCCc1cc(=O)n2[nH]c(CCc3ccccc3)nc2n1	–	inconclusive: 4.61 µM [inhibitor, partial curve, poor fit]
Cc1ccc2[nH]c(C)c(CCNC(=O)C3CCCCC3C(=O)OCC(F)(F)F)c2c1 (stereo not drawn)	–	inconclusive: 7.94 µM [inhibitor, partial curve, poor fit]
CSc1nc(SCC(=O)NCc2ccco2)c2c3c(sc2n1)CN(C)CC3	inactive: -1.42%	–
CC(CNC(=O)c1cncc(O)c1)NC(=O)c1cncc(O)c1 (stereo not drawn)	inactive: 12.8%	–
CCCc1cc(=O)oc2cc(C)c3c(-c4ccccc4)coc3c12	–	inconclusive: 5.01 µM [activator, single point]
COc1ccc2[nH]c(C(=O)NCCc3ccccc3)cc2c1	–	inconclusive: 1.26 µM [inhibitor, single point]
CCCCNC(=S)Nc1ccc(SC(F)F)cc1	–	inconclusive: 1 µM [inhibitor, full curve, poor fit]
Cc1sc(-n2c(C)cc(C=C3C(=O)NC(=O)NC3=O)c2C)c(C#N)c1C	–	inconclusive: 1.41 µM [inhibitor, partial curve, poor fit]
Cc1cc(C)cc(N2CCCn3c2nc2c3c(=O)n(CC(=O)OCc3ccccc3)c(=O)n2C)c1	–	inconclusive: 18.3 µM [inhibitor, partial curve, poor fit]
N#Cc1c(-c2ccc(F)cc2)c(-c2ccc(F)cc2)nn(CCO)c1=O	–	inconclusive: 1.26 µM [inhibitor, partial curve, poor fit]
CCCCCn1c(N2CCN(c3cccc(Cl)c3)CC2)nc2c1c(=O)[nH]c(=O)n2C	inactive: -15.1%	–
O=C(NCCc1cccc(Cl)c1)C1CCC(=O)N(Cc2ccc(Cl)cc2)C1 (stereo not drawn)	–	inconclusive: 22.4 µM [inhibitor, single point]
S=C(Nc1ccc(Nc2ccccc2)cc1)Nc1ccccn1	–	inconclusive: 17.8 µM [inhibitor, partial curve, poor fit]
COC(=O)C1=C(O)C(C(=O)OC)C(c2ccc(C)cc2)C(C#N)(C#N)C1c1ccc(C)cc1 (stereo not drawn)	–	inconclusive: 0.291 µM [inhibitor, partial curve, poor fit]
O=c1oc2ccccc2c(N2CCN(c3ccccc3F)CC2)c1CN1CCCC1	–	inconclusive: 7.94 µM [inhibitor, partial curve, poor fit]
O=c1cnn([C@@H]2O[C@H](CO)[C@@H](O)[C@H]2O)c(=O)[nH]1	–	inconclusive: 0.259 µM [inhibitor, full curve, poor fit]
N#C/C(=C\c1cn(Cc2ccccc2)c2ccccc12)C(=O)NCc1ccco1	inactive: 0.415%	–
C=CCN1C(=O)c2ccc(C(=O)N3CCN(S(=O)(=O)c4cc(C)ccc4C)CC3)cc2C1=O	–	inconclusive: 22.4 µM [activator, single point]
COc1ccc(OCC(=O)N2CCN(Cc3nc4cc([N+](=O)[O-])ccc4n3C)CC2)cc1	inactive: -2.04%	–
COc1ccc2c(Sc3ccc(C)cc3)c(C(=O)NC(C)C)[nH]c2c1	inactive: -25.3% [at 46.1 µM]	–
O=C(NCCNC(=O)c1cccs1)c1ccco1	inactive: -21%	–

Ordered by SMILES length (smallest number first): some entries from above
SMILES	activity change, negative = inhibition	Potency
CCCCNC(=S)Nc1ccc(SC(F)F)cc1	–	inconclusive: 1 µM [inhibitor, full curve, poor fit]
O=C(NCCNC(=O)c1cccs1)c1ccco1	inactive: -21%	–
S=C(Nc1ccc(Nc2ccccc2)cc1)Nc1ccccn1	–	inconclusive: 17.8 µM [inhibitor, partial curve, poor fit]
CCCc1cc(=O)n2[nH]c(CCc3ccccc3)nc2n1	–	inconclusive: 4.61 µM [inhibitor, partial curve, poor fit]
COc1ccc2[nH]c(C(=O)NCCc3ccccc3)cc2c1	–	inconclusive: 1.26 µM [inhibitor, single point]
CCCc1cc(=O)oc2cc(C)c3c(-c4ccccc4)coc3c12	–	inconclusive: 5.01 µM [activator, single point]
CSc1nc(SCC(=O)NCc2ccco2)c2c3c(sc2n1)CN(C)CC3	inactive: -1.42%	–
N#Cc1c(-c2ccc(F)cc2)c(-c2ccc(F)cc2)nn(CCO)c1=O	–	inconclusive: 1.26 µM [inhibitor, partial curve, poor fit]
O=C(NCCc1cccc(Cl)c1)C1CCC(=O)N(Cc2ccc(Cl)cc2)C1 (stereo not drawn)	–	inconclusive: 22.4 µM [inhibitor, single point]
Cc1sc(-n2c(C)cc(C=C3C(=O)NC(=O)NC3=O)c2C)c(C#N)c1C	–	inconclusive: 1.41 µM [inhibitor, partial curve, poor fit]
O=c1cnn([C@@H]2O[C@H](CO)[C@@H](O)[C@H]2O)c(=O)[nH]1	–	inconclusive: 0.259 µM [inhibitor, full curve, poor fit]
Cc1ccc2[nH]c(C)c(CCNC(=O)C3CCCCC3C(=O)OCC(F)(F)F)c2c1 (stereo not drawn)	–	inconclusive: 7.94 µM [inhibitor, partial curve, poor fit]
CCCCCn1c(N2CCN(c3cccc(Cl)c3)CC2)nc2c1c(=O)[nH]c(=O)n2C	inactive: -15.1%	–
Cc1cc(C)cc(N2CCCn3c2nc2c3c(=O)n(CC(=O)OCc3ccccc3)c(=O)n2C)c1	–	inconclusive: 18.3 µM [inhibitor, partial curve, poor fit]
C=CCN1C(=O)c2ccc(C(=O)N3CCN(S(=O)(=O)c4cc(C)ccc4C)CC3)cc2C1=O	–	inconclusive: 22.4 µM [activator, single point]
COC(=O)C1=C(O)C(C(=O)OC)C(c2ccc(C)cc2)C(C#N)(C#N)C1c1ccc(C)cc1 (stereo not drawn)	–	inconclusive: 0.291 µM [inhibitor, partial curve, poor fit]
O=[N+]([O-])c1cccc(/C=C2\CCC(/C=N/Nc3ccc4ccccc4n3)=C2N2CCOCC2)c1	–	inconclusive: 2.82 µM [inhibitor, full curve, poor fit]

Next part.

SMILES	activity change, negative = inhibition	Potency
COc1ccc(N2CC(C(=O)N/N=C/c3c[nH]c4ccccc34)CC2=O)cc1 (stereo not drawn)	inactive: 7.62% [at 46.1 µM]	–
O=S(=O)(Cc1noc(-c2ccccc2Cl)n1)c1ccccn1	–	inconclusive: 0.794 µM [activator, single point]
COc1ccccc1[C@@H]1C(C#N)=C(N)Oc2cc(C)n(Cc3ccccn3)c(=O)c21	–	inconclusive: 20.6 µM [activator, partial curve, poor fit]
O=C(CCCCCNc1nc(=S)[nH]c2ccccc12)NCCc1c[nH]c2ccccc12	–	inconclusive: 35.5 µM [inhibitor, single point]
CC(C)(C)c1ccc(C(=O)C2CCCN(C3CCC3)C2)cc1 (stereo not drawn)	–	inconclusive: 6.31 µM [inhibitor, partial curve, poor fit]
O=C(CCc1ccccc1)NNC(=S)NC(=O)c1ccc(Cl)cc1	–	inconclusive: 29.1 µM [inhibitor, single point]
Cc1ccccc1CC1(CO)CCCN(C(=O)CCC(=O)c2ccccc2)C1 (stereo not drawn)	–	inconclusive: 35.5 µM [inhibitor, single point]
O=C(NCCOc1cccc(Cl)c1Cl)c1cc(-n2cnnc2)ccc1Cl	–	inconclusive: 0.146 µM [activator, single point]
COc1ccc(CCNC(=O)N2c3ccccc3Sc3ccccc32)cc1	–	inconclusive: 35.5 µM [inhibitor, single point]
CCOc1ncccc1C(=O)N1CCN(c2cc(Cl)ccc2C)CC1	–	inconclusive: 7.94 µM [inhibitor, partial curve, poor fit]
CCN=c1scc(C)n1/N=C/c1cc(Br)c(O)c(OC)c1	–	inconclusive: 3.55 µM [inhibitor, single point]
C=CCn1c(SCc2nc3ccccc3[nH]2)nnc1-c1ccccn1	inactive: 5.58%	–
COc1cc(/C=N/n2c(C)n[nH]c2=S)ccc1OCc1ccc(F)cc1	inactive: 4.12%	–
O=C(CC12CC3CC(CC(C3)C1)C2)N/N=C\c1ccc[nH]1	inactive: 18.2% [at 46.1 µM]	–
COc1cc(Cl)ccc1OCc1cc(C(=O)NC(C)Cc2cnccn2)no1 (stereo not drawn)	–	inconclusive: 0.178 µM [activator, full curve, poor fit]
CC(NC(=O)Cc1ccccc1)c1ccc(F)cc1 (stereo not drawn)	–	inconclusive: 1.26 µM [inhibitor, single point]
O=C(CSc1nc2ccccc2s1)Nc1ncccn1	inactive: -4.77% [at 46.1 µM]	–
C(=N\N1CCN(C2c3ccccc3-c3ccccc32)CC1)/c1ccncc1	inactive: -24%	–
CC(C)[C@H](NC(=O)c1ccccc1Cl)C(=O)OCC(=O)N1CCCCC1	–	inconclusive: 35.5 µM [activator, single point]
O=C(Oc1ccc(/C=N/Nc2ccccc2)cc1)c1ccccc1	inactive: 34%	–
Cc1cc(Br)c2c(c1)/C(=C/C(=O)c1cccs1)C(=O)N2	–	inconclusive: 8.91 µM [inhibitor, partial curve, poor fit]
Cc1ccc(NC(=O)N2CCN(Cc3ccc4c(c3)OCO4)CC2)cc1	–	inconclusive: 29.1 µM [inhibitor, single point]
